Source: ChEMBL document CHEMBL3988442, “University of Dundee, Small-Polar-MMV Screening Library” (2021).

Results are given as percent effect.
How 0% and 100% were set is not recorded. Most values in the screen are low, and negative values occur.
The compounds are a random part of those screened.

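Whole-cell assay for inhibitors of Mycobacterium tuberculosis growth, labelled Cornell in the record; the read-out is not stated. The concentration is filed as 10 mM, unlikely as a test dose, so the dose is not known. The record gives no direction; compounds strong in two other growth screens of this library score well above the rest, so higher reads as stronger inhibition. Size under these conditions: about 53,000 compounds, about 900 of them at 50% or above in at least one test.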

Result for Cc1ccc(F)c2c1CCCN2Cc1cc(=O)n(C)c(=O)n1C was 30.7%.
Result for CC(=O)N1CCCC1c1cccc(NCc2ccccc2F)n1 (stereo unspecified) was -3.965%.
Result for CCc1c(C)sc2ncnc(N3CC[C@@H](N4CCC(O)CC4)[C@H](O)C3)c12 was 5.895%.
Result for COc1ccc(-c2cc3nn(CC(N)=O)c(=O)n3c(C)n2)cc1 was -55.66%.
Result for CCCC(C#N)NC(=O)CCCOc1cccc(C(C)=O)c1 (stereo unspecified) was 9.49%.
Result for COc1ccc(OCCN(C)S(=O)(=O)N2CCOCC2)cc1 was 7.823%.
Result for N#Cc1ccnc(N2CCN(CC(O)c3ccccc3)CC2)c1 (stereo unspecified) was -47.29%.
Result for Nc1cc(C(=O)N2CCC3(CC2)Nc2ccccc2NC3=O)ccn1 was -2.994%.
Result for O=C(C1=CCCC1)N1CCC[C@]2(C[C@@H](Oc3ncccc3F)CO2)C1.O=C(O)C(F)(F)F was 36.08%.
Result for COCCc1noc(CN(C)C(=O)C(C)N2CCc3ccccc3C2)n1 (stereo unspecified) was 13.3%.
Result for O=C(O)C(F)(F)F.O=C(O)C(F)(F)F.[H][C@@]12CCCO[C@]1([H])[C@H](N(C)Cc1cccnc1)CN2C(=O)CC1CC1 was 5.564%.
Result for COc1ccc(C(C)N2CCC(CO)CC2)cc1Cl (stereo unspecified) was -3.867%.
Result for CC(C)Nc1nc(-c2ccccc2)nc2c1CCN(C(=O)CC#N)CC2 was -19.09%.
Result for CCc1ncc2c(n1)CN(CC(=O)Nc1ccncc1)CC2 was -26.03%.
Result for CS(=O)(=O)c1ccc(OCCNCc2cccc(O)c2)cc1 was -19.55%.
Result for O=C1CC(c2ccc(CO)o2)c2cnn(Cc3ccco3)c2N1 (stereo unspecified) was 16.08%.
Result for O=C(Nc1cccnc1N1CCSCC1)c1ccc2c(c1)OCO2 was 2.622%.
Result for Cc1ccccc1CN1CCCC1c1cncc(Nc2nncs2)n1 (stereo unspecified) was -13.94%.
Result for O=C(CC1=CCCCC1)Nc1ccc(CN2C(=O)CCC2=O)cc1 was 2.744%.
Result for COCC1CN(C(=O)c2ccc(C)o2)Cc2nccn2C1 (stereo unspecified) was -23.16%.
Result for CCn1cnnc1CNc1nc(C)nc2scc(CC(C)C)c12 was 12.01%.
Result for CCN1CCN(c2ccc(C(=O)NC(C)c3ccncc3)cc2)CC1 (stereo unspecified) was 27.91%.
Result for CN1CCC[C@H]1c1nc(-c2cncnc2N)no1 was 11.24%.
Result for Cc1c(Br)cccc1C(=O)NCCC1CCCNC1.Cl (stereo unspecified) was -39.05%.
Result for O=C(c1c[nH]c2ncccc12)N1CCC(COc2ccccc2)CC1 was -14.13%.
Result for COC(C)(C)C(=O)NCC1CCN(Cc2cc3ccccc3[nH]2)C1 (stereo unspecified) was -11.38%.
Result for CCCc1cncnc1N1CCC(NCCc2ccc(O)cc2)CC1 was 32.85%.
Result for CCN(C(=O)c1ccc2c(c1)OCO2)C1CC(=O)NC1=O (stereo unspecified) was -9.897%.
Result for O=C(O)C(F)(F)F.[H][C@@]12CN(C(C)=O)CCO[C@]1([H])CN(S(=O)(=O)c1cccnc1)C2 was -18.18%.
Result for [H][C@@]12CN(C(=O)C3CCOCC3)C[C@]1([H])OCCN2CCN(C)C was 26.08%.
Result for c1cnc(C2CCCN2c2cnccn2)cn1 (stereo unspecified) was -36.08%.
Result for Cc1cc(CN[C@@H](C)C(N)=O)c(C)s1 was 1.772%.
Result for CC1(C)CN(CC(F)(F)F)CCN1CC(=O)NC1CCCC1 was 28.37%.
Result for CCN1CCC2(COCc3cnc(NCC4CC4)nc32)C1.O=C(O)C(F)(F)F (stereo unspecified) was 4.473%.
Result for O=C(O)C(F)(F)F.[H][C@]12C[C@H](C(=O)NCC3CC3)N(C(C)=O)[C@@]1([H])CN(Cc1nccs1)C2 was -7.251%.
Result for CCc1ccc(CN2CCN(c3ccc(C(N)=O)cn3)CC2)nc1 was 32.71%.
Result for CCc1nc2n(n1)CCCC2Nc1nc(C2CC2)ns1 (stereo unspecified) was -19.39%.
Result for O=c1[nH]c(C2CCOC2)nc2ccc(Cl)cc12 (stereo unspecified) was -26.97%.
Result for CCSc1cc(C(=O)NCc2ccccc2O)ccn1 was 21.6%.
Result for CCOc1cccc(COC(=O)c2cc(Cl)ccn2)n1 was 14.29%.
Result for Cc1nccn1[C@@H]1CC[C@@H](N(C)S(=O)(=O)c2cccc(F)c2)[C@H]1O was 46.84%.
Result for C[C@@H]1CN(C2CCN(c3ccccc3F)CC2)C[C@]1(C)O was -0.763%.
Result for OCCn1cc(CN2CCN(CCOc3ccccc3)CC2)cn1 was 11.98%.
Result for Cl.[H][C@@]12CN(C3CCCC3)CC[C@]1([H])N(C(=O)C1CCC1)C[C@H]2c1ccsc1 was 5.218%.
Result for CC(C)CN(C(=O)Nc1cccnc1)C1CC1 was -0.2042%.
Result for COc1ccccc1CC(C)(C)C(=O)NCC(=O)Nc1cccnc1 was 10.98%.
Result for O=C(O)C(F)(F)F.c1coc(CN2CCC3(CC2)COC(COCC2CC2)C3)c1 (stereo unspecified) was -14.05%.
Result for CN(C(=O)CN1CCCC1=O)C1CCCN(C2Cc3ccccc3C2)C1 (stereo unspecified) was 7.567%.
Result for CCCc1nc2c(c(C)c(C)n2Cc2ccccn2)c(N)c1CC was 24.13%.
Result for O=C(NCC(=O)N1CCN(c2ccccc2)CC1)c1sccc1C1CC1 was 35.45%.

Some entries from above, unchanged:

- CC1(C)CN(CC(F)(F)F)CCN1CC(=O)NC1CCCC1 : 28.37%
- O=C(O)C(F)(F)F.c1coc(CN2CCC3(CC2)COC(COCC2CC2)C3)c1 (stereo unspecified) : -14.05%
- Cc1ccccc1CN1CCCC1c1cncc(Nc2nncs2)n1 (stereo unspecified) : -13.94%
- O=C(O)C(F)(F)F.[H][C@]12C[C@H](C(=O)NCC3CC3)N(C(C)=O)[C@@]1([H])CN(Cc1nccs1)C2 : -7.251%
- CCc1ccc(CN2CCN(c3ccc(C(N)=O)cn3)CC2)nc1 : 32.71%